In the DeepSol protein solubility set:

Experiment: soluble on expression in E. coli; label from the status in PepcDB or PDB records

Sequence	soluble on expression in E. coli
MSLGLKNKIKGFIKERMPFVVRYVRSLKGAKNIYDEINHEIKEMLEAKKLHSLQEKALFNHDHQESVFLAIASLNNESFIERNKSIYKNSSLNYNYGGGGHLEDRVIHPTLTLPNPTHSGYFDYDKKSQNPKSPLNPWAFIRVKNEIVTLEESLFSMLPAIQRGVIGFNDCDDGSKEVILEFCKKFPSFIPISYPYEVMLKDCPSLWHQLYHYSNYTLSFIPKNEWVIKIDGDHVYDAKKLYESFYIPKSIKEVVMYSRINFVVQDFEVFVCNSGDFGFLDAWGDQWLFYNDCEPFEIWQHNDDIYEILKLKDKHHIKDKELMQWHFPLAKKRRNAIVDNDLIPLKEFKKHHADLIGTKIEESMLDEKRILEMYQKFNLAEREGHHHHHH	soluble
MSSTRFIASSLANVTSRRSVSLLVRRSQFSFAPQRGLISVIDKQQCRQITDYSAKDSRINSRKLRNHDGSNMDGASITAAALKSQGVEYMFGVVGFPVIEVGMAAQAHGIKYIGCRNEQAAAYAAQAMGYLTGKPVALLVVSGPGILHAIGGLANATVNCWPVVCIGGTADVDLENRGAFQEWSQQESVRNSCKHVSRPTSLHTIPAHIEKAVRCAMYGRPGAVYVDLPGNLVLTSTEEEISFPPQVPLPAPVSIPPIAEIEKAIDTLKSAKKPLVIVGKGAAWSERGATQVQQFLTKSKLPWLATPGGKGVASDLHPRFIGQARSLALREADTVFLIGARFNWILHFGLPPRFQKDVKVVQIDICPEEFHQNVKTEVPLLGDIGETLAELTPRLGDWTYDESTEWFKKLRENAEKNRAAVEKFVDDHSTPLNYYAAYQPIREFLANNDVIVINEGANTMDIGRTMMPSRLPKRRLDAGTFGTMGVGHGFSLAAALWARDHSPKTKVLVVQGDSAFGFSAMELETIARYNLPVVTVIINNSGIYRGLLPEDDKAIEGDRTLALPVLSLTAECRYEEMCKAFGGAGTVVRTVPEIKAALEKAFQKTDGPTVINALISTDSERKPQADHWLTRSKM	not soluble
MVAITTAASRLGVAPYNESRPVELRPDFSLDDAKMVIRAVYRQVLGNDYIMDSERLKGAESLLTNGSISVREFVRTVAKSELYKKKFLYNNFQTRVIELNYKHLLGRAPFSEDEVIFHLDLYENQGFDADIDSYIDSVEYQENFGENIVPYYRFNNQVGDRTVGFTRMFRLYRGYANSDRSQLERSSSRLATELGQNTVSAIVGPSGSNAGWAYRPSRAGNLEHHHHHH	soluble
RMKQLEDKVEELLSKNYHLENEVARLKKLVNSDGLTGLSNRRHFDEYLEMEWRRSLREQSQLSLLMIDVDYFKSYNDTFGHVAGDEALRQVAGAIREGCSRSSDLAARYGGEEFAMVLPGTSPGGARLLAEKVRRTVESLQISHDQPRPGSHLTVSIGVSTLVPGGGGQTFRVLIEMADQALYQAKNNGRNQVGLMEQPVPPAPAG	soluble
VSKGEELFTGVVPILVELDGDVNGHKFSVRGEGEGDATIGKLTLKFICTTGKLPVPWPTLVTTLGYGLQCFARYPDHMKQHDFFKSAMPEGYVQERTISFKDDGKYKTRAVVKFEGDTLVNRIELKGTDFKEDGNILGHKLEYNFNSHNVYITATRGTAAARPACKIPNDLKQKVMNHDKQKNGIKANFTVRHNVEDGSVQLADHYQQNTPIGDGPVLLPDNHYLSYQTVLSKDPNEKRDHMVLLEFVTAAGITLGMDELYK	soluble
